Measured values from the supplement of paper PMC7238544.
Where a name gives a salt, the structure may show the parent alone. ± gives the standard deviation of the averaged measurements. The list shows a part of the results. The data scatter; read single values as rough.

How the values were obtained:
hAMSC donor 1 [1] = experiment: Hoechst total cell count ratio vs vehicle control; higher = more cells (less toxicity)
hAMSC donor 2 [2] = experiment: as above
hAMSC donor 1 [3] = experiment: transgenic luciferase activity (RLU/mg protein) fold change vs vehicle control (ratio); higher = more transgene expression
hAMSC donor 1 [4] = experiment: transfection efficiency (EGFP+ cells / Hoechst count) fold change vs vehicle control (ratio); hAMSC are human adipose-derived mesenchymal stem cells given an EGFP-luciferase plasmid by lipofection; higher = enhanced transfection
hAMSC donor 2 [5] = experiment: as above
[6] = priming compound concentration 0.2 µM
[7] = priming compound concentration 1.7 µM
[8] = priming compound concentration 13 µM

Structure (SMILES)	Hoechst total cell count ratio (hAMSC donor 1 [1]; [6])	Hoechst total cell count ratio (hAMSC donor 1 [1]; [7])	Hoechst total cell count ratio (hAMSC donor 1 [1]; [8])	Hoechst total cell count ratio (hAMSC donor 2 [2]; [6])	Hoechst total cell count ratio (hAMSC donor 2 [2]; [7])	Hoechst total cell count ratio (hAMSC donor 2 [2]; [8])	transgenic luciferase activity (hAMSC donor 1 [3]; [6])	transfection efficiency (hAMSC donor 1 [4]; [6])	transfection efficiency (hAMSC donor 1 [4]; [7])	transfection efficiency (hAMSC donor 1 [4]; [8])	transfection efficiency (hAMSC donor 2 [5]; [6])	transfection efficiency (hAMSC donor 2 [5]; [7])	transfection efficiency (hAMSC donor 2 [5]; [8])	transgenic luciferase activity (hAMSC donor 1 [3]; [8])	transgenic luciferase activity (hAMSC donor 1 [3]; [7])
NNCCc1ccccc1 [Phenelzine sulfate]	1.33 ± 0.18	1.29 ± 0.091	1.23 ± 0.042	0.947 ± 0.12	0.958 ± 0.13	1.02 ± 0.16	0.654 ± 0.17	1.05 ± 0.23	1.2 ± 0.18	1.09 ± 0.11	0.953 ± 0.2	1.11 ± 0.064	1.08 ± 0.24	–	–
C[C@@H](O)[C@H]1C(=O)N2C(C(=O)O)=C(S[C@@H]3CN[C@H](C(=O)N(C)C)C3)[C@H](C)[C@H]12 [Meropenem]	1.21 ± 0.21	1.23 ± 0.11	1.23 ± 0.097	1.27 ± 0.07	1.28 ± 0.06	1.46 ± 0.068	–	1.14 ± 0.13	1.13 ± 0.47	1.09 ± 0.21	0.95 ± 0.17	0.971 ± 0.086	1.04 ± 0.12	0.51 ± 0.22	–
Cc1nc(=O)c2cc(CN(C)c3ccc(C(=O)N[C@@H](CCC(=O)O)C(=O)O)s3)ccc2[nH]1 [Raltitrexed]	1.18 ± 0.029	1.53 ± 0.26	1.19 ± 0.13	0.992 ± 0.063	1.12 ± 0.069	0.948 ± 0.057	1.11 ± 0.33	1.08 ± 0.36	0.734 ± 0.36	0.952 ± 0.13	1.08 ± 0.15	1.06 ± 0.17	1.06 ± 0.099	–	–
O=C(O)Cc1ccccc1Nc1c(Cl)cccc1Cl [Diclofenac sodium]	1.17 ± 0.016	0.982 ± 0.13	0.986 ± 0.23	1.08 ± 0.034	0.85 ± 0.22	0.867 ± 0.29	–	0.866 ± 0.22	1.44 ± 0.2	0.878 ± 0.29	1.09 ± 0.1	1.51 ± 0.16	1.15 ± 0.33	1.03 ± 0.17	–
NS(=O)(=O)c1cc2c(cc1C(F)(F)F)NCNS2(=O)=O [Hydroflumethiazide]	1.62 ± 0.089	1.31 ± 0.11	1.45 ± 0.18	0.755 ± 0.24	1.18 ± 0.064	1.23 ± 0.15	–	1.23 ± 0.1	1.12 ± 0.32	1.33 ± 0.3	1.49 ± 0.3	1.3 ± 0.057	1.5 ± 0.23	–	0.951 ± 0.3
CN(CCO)CC(O)Cn1cnc2c1c(=O)n(C)c(=O)n2C (stereo not given) [Xanthinol nicotinate]	1.39 ± 0.14	1.17 ± 0.043	1.21 ± 0.056	0.901 ± 0.3	1.44 ± 0.3	1.06 ± 0.13	–	0.674 ± 0.06	1.01 ± 0.12	0.869 ± 0.34	1.19 ± 0.17	1.08 ± 0.16	0.9 ± 0.17	0.693 ± 0.14	–
CC1(C)C[C@@H]1C(=O)N/C(=C\CCCCSC[C@H](N)C(=O)O)C(=O)O [Cilastatin sodium]	1.26 ± 0.086	1.33 ± 0.035	1.16 ± 0.074	0.922 ± 0.23	1.01 ± 0.067	0.83 ± 0.13	1.12 ± 0.048	0.86 ± 0.26	0.914 ± 0.24	0.99 ± 0.23	0.922 ± 0.085	1.02 ± 0.17	1.16 ± 0.073	–	–
Cn1nnc2c(C(N)=O)ncn2c1=O [Temozolomide]	1.33 ± 0.021	1.3 ± 0.11	1.25 ± 0.029	0.958 ± 0.29	0.965 ± 0.055	1.12 ± 0.17	–	1.38 ± 0.19	1.08 ± 0.23	1.01 ± 0.63	1.3 ± 0.19	1.35 ± 0.17	1 ± 0.16	1.71 ± 1.9	–
CC(C)[C@H]1CC[C@H](C(=O)N[C@H](Cc2ccccc2)C(=O)O)CC1 [Nateglinide]	1.38 ± 0.2	1.28 ± 0.11	1.2 ± 0.1	1.11 ± 0.58	1.07 ± 0.25	0.865 ± 0.12	–	1.32 ± 0.15	0.821 ± 0.071	1.12 ± 0.28	1.04 ± 0.48	1.37 ± 0.19	1.27 ± 0.055	–	0.861 ± 0.2
COc1ccc2[nH]c([S+]([O-])Cc3ncc(C)c(OC)c3C)nc2c1 (stereo not given) [Omeprazole]	1.13 ± 0.24	1.23 ± 0.13	1.21 ± 0.015	0.993 ± 0.22	1.13 ± 0.028	1.13 ± 0.083	0.375 ± 0.27	1.06 ± 0.25	1.06 ± 0.22	0.888 ± 0.33	1 ± 0.24	1.01 ± 0.13	0.885 ± 0.11	–	–
Clc1ccc2c(c1)CCc1cccnc1C2=C1CCNCC1 [Desloratadine]	1.18 ± 0.1	1.31 ± 0.086	1.27 ± 0.075	1.11 ± 0.24	1.15 ± 0.084	1.45 ± 0.22	–	1.21 ± 0.2	0.833 ± 0.32	0.566 ± 0.21	1.13 ± 0.13	0.815 ± 0.083	0.533 ± 0.1	0.318 ± 0.058	–
CC(C)(C)NC(=O)[C@H]1CC[C@H]2[C@@H]3CC[C@H]4NC(=O)C=C[C@]4(C)[C@H]3CC[C@]12C [Finasteride]	1.22 ± 0.1	1.19 ± 0.055	1.12 ± 0.14	1.3 ± 0.36	1.09 ± 0.19	1.38 ± 0.042	–	0.767 ± 0.13	0.749 ± 0.13	1.25 ± 0.36	0.934 ± 0.035	1.35 ± 0.23	0.703 ± 0.062	0.818 ± 0.6	–
Cc1ccc(N(CC2=NCCN2)c2cccc(O)c2)cc1 [Phentolamine mono-hydrochloride]	1.33 ± 0.09	1.08 ± 0.26	1.28 ± 0.28	0.856 ± 0.042	1.21 ± 0.05	1.26 ± 0.2	–	1.27 ± 0.62	1.14 ± 0.14	1.09 ± 0.24	1.66 ± 0.82	1.18 ± 0.23	1.23 ± 0.22	–	0.962 ± 0.093
Nc1nc(Cl)nc2c1ncn2[C@@H]1O[C@H](CO)[C@@H](O)[C@H]1O [2-Chloroadenosine]	1.15 ± 0.061	1.16 ± 0.037	1.18 ± 0.014	1.39 ± 0.029	1.34 ± 0.039	1.46 ± 0.2	–	0.853 ± 0.056	0.911 ± 0.087	0.86 ± 0.13	0.918 ± 0.063	0.909 ± 0.03	0.774 ± 0.12	0.739 ± 0.3	–
Cc1cccc(C)c1NC(=O)C(C)N (stereo not given) [Tocainide]	1.36 ± 0.17	1.31 ± 0.1	1.36 ± 0.14	0.888 ± 0.31	1.2 ± 0.13	1.11 ± 0.24	–	0.867 ± 0.27	1.18 ± 0.44	0.717 ± 0.16	1.27 ± 0.27	1.54 ± 0.096	1.02 ± 0.34	0.662 ± 0.39	–

Reprinted at random: 2 compounds from above, in no set order.
Structure (SMILES)	Hoechst total cell count ratio (hAMSC donor 1 [1]; [6])	Hoechst total cell count ratio (hAMSC donor 1 [1]; [7])	Hoechst total cell count ratio (hAMSC donor 1 [1]; [8])	Hoechst total cell count ratio (hAMSC donor 2 [2]; [6])	Hoechst total cell count ratio (hAMSC donor 2 [2]; [7])	Hoechst total cell count ratio (hAMSC donor 2 [2]; [8])	transgenic luciferase activity (hAMSC donor 1 [3]; [6])	transfection efficiency (hAMSC donor 1 [4]; [6])	transfection efficiency (hAMSC donor 1 [4]; [7])	transfection efficiency (hAMSC donor 1 [4]; [8])	transfection efficiency (hAMSC donor 2 [5]; [6])	transfection efficiency (hAMSC donor 2 [5]; [7])	transfection efficiency (hAMSC donor 2 [5]; [8])	transgenic luciferase activity (hAMSC donor 1 [3]; [8])	transgenic luciferase activity (hAMSC donor 1 [3]; [7])
Cc1ccc(N(CC2=NCCN2)c2cccc(O)c2)cc1 [Phentolamine mono-hydrochloride]	1.33 ± 0.09	1.08 ± 0.26	1.28 ± 0.28	0.856 ± 0.042	1.21 ± 0.05	1.26 ± 0.2	–	1.27 ± 0.62	1.14 ± 0.14	1.09 ± 0.24	1.66 ± 0.82	1.18 ± 0.23	1.23 ± 0.22	–	0.962 ± 0.093
NS(=O)(=O)c1cc2c(cc1C(F)(F)F)NCNS2(=O)=O [Hydroflumethiazide]	1.62 ± 0.089	1.31 ± 0.11	1.45 ± 0.18	0.755 ± 0.24	1.18 ± 0.064	1.23 ± 0.15	–	1.23 ± 0.1	1.12 ± 0.32	1.33 ± 0.3	1.49 ± 0.3	1.3 ± 0.057	1.5 ± 0.23	–	0.951 ± 0.3
